Measured values published in patent publication US20260022352A1, “COMPOSITIONS AND METHODS FOR PURIFYING […]” (North Carolina State University, priority 2023, published 2026).

Tested on: HEK293 host cell proteins

Substance | HCP LRV | also measured
AFIHEAWS | 1.42 | –
C-cyclo[GSRAFVGDAD]C (CGSRAFVGDADC; cyclised) | – | HCP fold reduction: 871 fold; residual HCP titer: ~0.34 g/mL
C-cyclo[GSRAFVGDAD]C-GSG | – | HCP LRV (pH 7.4): 2.94
EHFEHWSE | 1.88 | HCP LRV (pH 7.4): 2.32
ESFWFNNE | 1.98 | –
FEKISNAE | 1.61 and 1.62 and 1.82 and 1.81 and 2.01 | HCP LRV (pH 7.4): 2.39; HCP LRV (pH 8): 2.39
FGKSAAAA | 0.54 | –
FWIAIEAI | 1.81 | –
FWSAFINE | 1.98 | –
GASFFISW | 1.59 | –
GEFENINW | 1.62 and 1.73 and 2.71 and 2.39 and 2.37 | HCP LRV (pH 8): 1.92
GNSNAAHF | 0.71 | –
GSWGGHHW | 1.51 | –
HAWENNFG | 1.12 | –
IWEFKNHE | 1.31 | –
KAHEHIFW | 0.56 | –
LKIWEWEI | 0.58 | –
NAAFIWNH | 2.07 | –

Substance | HCP LRV | also measured
NKGHSHEE | 0.79 | –
NNWHEWHI | 1.48 | –
NWFWSFNE | 2.05 | –
SESIIAWW | 1.81 | –
SFVRIGLSDGSG | – | HCP LRV (pH 7.4): 2.02
SHFAWASE | 0.91 | –
SHIKNSAN | 0.78 | –
SIEINSSE | 1.69 and 2.49 | –
SKSAAEHE | 1.24 and 1.75 | HCP LRV (pH 7.4): 1.81
SNEIEIAN | 1.84 and 2.25 | –
SRAFVGDADRDGSG | – | HCP LRV (pH 7.4): 2.20
SRQFVCGDSDRDGSG | – | HCP LRV (pH 7.4): 2.42
SWFHWNGW | 0.52 | –
WESIIFAA | 1.79 | –
WFIIEESG | 1.83 | –
WFWHAAIF | 2.08 | –
WHISHAAN | 1.52 | –
WSSISEGG | 2.31 | –

Where “and” joins values, the source holds several entries; their conditions need not be identical. Equal values may be shown once. Read-outs that look alike come from different tables or passages of the source.
